Results reported in patent US20230265393A1, “COMPOSITION AND METHODS FOR PRODUCING ADULT LIVER ORGANOIDS” (Rutgers, the State University of New Jersey, priority 2021, published 2023).
At least one structure is not confirmed: it was looked up by name or label, or the drawing left a doubt.

Experiments:
Type in all cases: cell-based, human
[1] = system: PCK1; assay: Q-PCR expression of PCK1 in organoids; details: HepGOs, EM supplemented with core molecules (FIG. 4C)
Description: (§1) RNA was first extracted from the differentiated organoids using Trizol™. RNA was used for cDNA synthesis using the iScript Kit (BioRad™). Quantitative PCR (Q-PCR) was performed for targets of interest including G6PC, PCK1, and AFP using Bio-Rad™ CFX96. Bio Rad™'s SYBR Green (SG), a asymmetrical cyanine dye used as a nucleic acid stain in Q-PCR super mix was used with the target-specific primers. See Table 3, below for a description of the primers used for hepatocyte expression. The data was analyzed using Excel™ and Prism 8™.
(§2) HepGOs were expanded for one month, and then media were supplemented with 25 ng/mL BMP7 for 5 days before replacing the media with hepatocyte DM for one week. The data are from experiments that were done in at least in duplicate with three replicates per condition and were normalized to the endogenous control (β-Actin) and HepG2 GM cultures. The scale bar is 100 μm.

[2] = system: primary hepatocytes; assay: 3D organoid culture of adult donor-derived primary hepatocytes (HepAOs): organoid formation and expansion; details: single cell derived, at one week, change of core EM component (FIG. 1C)
Description: Human hepatic cells were counted and seeded at a concentration of 100 cells per μL of the ECM Matrigel™ (Corning™). The cell-ECM mix were seeded on 24 well plates Greiner™) that had been incubated 24 hours prior at 37° C. A total of 50 μL of Matrigel™ were added to the center of each well to form a dome shaped chamber and incubated for 5-8 minutes at 37° C. before adding 500 μμL of isolation medium to each well. Media specifications and storage times are indicated.
After 4 days, the isolation medium was substituted for expansion medium (EM) containing 10 μM ROCK inhibitor (Y-27632). The EM was replenished three times per week.
After the first 6 days in culture, the ROCK inhibitor was removed from the media. The cells within the ECM mix were expanded for 14 days to form organoids. After 14 days, the media was supplemented with 25 ng/mL of BMP7, and the organoids were cultured for 5 days before replacing the media with hepatocyte differentiation medium (DM). The DM were replenished every 3 days. At day 7 of differentiation, the organoids were used for analyses. […]
We assessed the organoid-forming efficiency at one week in single cell derived organoids (FIG. 1B and FIG. 1C). […]

[3] = system: G6PC; assay: Q-PCR expression of G6PC in organoids; details: HepGOs, EM supplemented with core molecules (FIG. 4B)
Description: as §1, §2

C[C@@H]1C[C@H]2[C@@H]3CCC4=CC(=O)C=C[C@]4(C)[C@@]3(F)[C@@H](O)C[C@]2(C)[C@@]1(O)C(=O)CO [dexamethasone]
relative PCK1 expression [1]: significant increase in the relative PCK1 expression
organoid forming efficiency [2]: trend towards increase in organoid forming efficiency
relative G6PC expression [3]: significant increase in the relative G6PC expression
